According to publication PMC11032339:
These are yes or no findings as the source states them, for the method shown. A result given as binding can be weak or reduced; the word gives no strength.

biological target: T1, soluble full-length recombinant ADAMTS13 (UniProt Q76LX8); experiment: SPR; competition: 2 µM Lys-Pg, Glu-Pg or apo(a) with 0-5 mM EACA or TXA (small-molecule lysine analogs) injected over immobilized ADAMTS13 (or fibrinogen); same buffer and conditions as the binding experiments; both purified
T1 sequence: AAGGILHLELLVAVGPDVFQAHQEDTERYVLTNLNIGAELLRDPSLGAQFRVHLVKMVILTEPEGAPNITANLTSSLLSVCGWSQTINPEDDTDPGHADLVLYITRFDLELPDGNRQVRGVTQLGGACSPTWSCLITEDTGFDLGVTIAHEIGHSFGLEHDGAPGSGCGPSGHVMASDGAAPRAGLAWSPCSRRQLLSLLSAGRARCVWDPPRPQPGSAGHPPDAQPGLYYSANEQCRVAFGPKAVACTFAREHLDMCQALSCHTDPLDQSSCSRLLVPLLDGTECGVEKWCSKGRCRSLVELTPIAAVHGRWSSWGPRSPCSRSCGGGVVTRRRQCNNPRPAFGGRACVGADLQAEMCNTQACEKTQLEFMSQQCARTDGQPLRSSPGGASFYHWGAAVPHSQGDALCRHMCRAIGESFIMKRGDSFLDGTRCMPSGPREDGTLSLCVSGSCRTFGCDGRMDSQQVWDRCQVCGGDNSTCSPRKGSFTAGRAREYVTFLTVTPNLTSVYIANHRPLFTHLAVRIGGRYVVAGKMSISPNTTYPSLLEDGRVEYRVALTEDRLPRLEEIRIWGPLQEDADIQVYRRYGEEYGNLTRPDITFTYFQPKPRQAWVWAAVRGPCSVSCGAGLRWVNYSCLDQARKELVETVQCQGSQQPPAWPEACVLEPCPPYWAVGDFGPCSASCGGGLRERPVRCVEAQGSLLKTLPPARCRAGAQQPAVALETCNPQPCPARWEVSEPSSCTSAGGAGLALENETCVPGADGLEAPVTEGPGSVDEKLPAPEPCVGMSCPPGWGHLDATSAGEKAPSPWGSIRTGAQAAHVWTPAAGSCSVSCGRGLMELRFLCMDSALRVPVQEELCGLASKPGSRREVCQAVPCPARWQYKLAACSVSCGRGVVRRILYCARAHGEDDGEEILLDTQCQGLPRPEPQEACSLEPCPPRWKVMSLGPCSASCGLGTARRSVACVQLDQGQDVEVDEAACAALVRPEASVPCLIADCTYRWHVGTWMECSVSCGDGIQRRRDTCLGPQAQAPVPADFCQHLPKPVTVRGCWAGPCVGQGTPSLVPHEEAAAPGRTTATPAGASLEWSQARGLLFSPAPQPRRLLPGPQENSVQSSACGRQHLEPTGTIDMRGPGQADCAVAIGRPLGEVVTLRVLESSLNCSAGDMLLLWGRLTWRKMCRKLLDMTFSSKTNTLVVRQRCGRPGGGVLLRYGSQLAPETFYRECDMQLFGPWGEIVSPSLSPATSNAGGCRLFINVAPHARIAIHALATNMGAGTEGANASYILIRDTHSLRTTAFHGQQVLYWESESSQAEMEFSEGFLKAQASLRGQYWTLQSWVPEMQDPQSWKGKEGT

binding, binds:
17-kringle form of apolipoprotein(a), Glu-plasminogen, Lys-plasminogen
